## Primary screen of a compound library

The chains behind the UniProt entries cited, without tags or fusion partners. Residues count along the entry.
UniProt Q8IDJ8, 1-583: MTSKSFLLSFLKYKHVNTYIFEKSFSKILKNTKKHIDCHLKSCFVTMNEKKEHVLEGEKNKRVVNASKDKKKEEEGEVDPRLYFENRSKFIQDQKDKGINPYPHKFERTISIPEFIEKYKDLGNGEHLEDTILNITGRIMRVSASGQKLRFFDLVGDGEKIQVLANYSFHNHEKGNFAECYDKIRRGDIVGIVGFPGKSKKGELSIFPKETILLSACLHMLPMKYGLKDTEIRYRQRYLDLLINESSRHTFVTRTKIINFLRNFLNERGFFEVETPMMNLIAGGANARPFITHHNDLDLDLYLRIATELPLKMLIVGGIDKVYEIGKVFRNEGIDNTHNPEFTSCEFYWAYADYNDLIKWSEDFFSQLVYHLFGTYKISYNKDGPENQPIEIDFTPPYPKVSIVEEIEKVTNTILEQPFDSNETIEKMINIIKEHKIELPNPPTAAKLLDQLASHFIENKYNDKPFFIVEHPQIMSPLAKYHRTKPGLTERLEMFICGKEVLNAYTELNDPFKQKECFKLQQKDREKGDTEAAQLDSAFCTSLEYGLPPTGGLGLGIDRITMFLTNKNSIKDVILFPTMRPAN
UniProt I6X8D2, whole entry: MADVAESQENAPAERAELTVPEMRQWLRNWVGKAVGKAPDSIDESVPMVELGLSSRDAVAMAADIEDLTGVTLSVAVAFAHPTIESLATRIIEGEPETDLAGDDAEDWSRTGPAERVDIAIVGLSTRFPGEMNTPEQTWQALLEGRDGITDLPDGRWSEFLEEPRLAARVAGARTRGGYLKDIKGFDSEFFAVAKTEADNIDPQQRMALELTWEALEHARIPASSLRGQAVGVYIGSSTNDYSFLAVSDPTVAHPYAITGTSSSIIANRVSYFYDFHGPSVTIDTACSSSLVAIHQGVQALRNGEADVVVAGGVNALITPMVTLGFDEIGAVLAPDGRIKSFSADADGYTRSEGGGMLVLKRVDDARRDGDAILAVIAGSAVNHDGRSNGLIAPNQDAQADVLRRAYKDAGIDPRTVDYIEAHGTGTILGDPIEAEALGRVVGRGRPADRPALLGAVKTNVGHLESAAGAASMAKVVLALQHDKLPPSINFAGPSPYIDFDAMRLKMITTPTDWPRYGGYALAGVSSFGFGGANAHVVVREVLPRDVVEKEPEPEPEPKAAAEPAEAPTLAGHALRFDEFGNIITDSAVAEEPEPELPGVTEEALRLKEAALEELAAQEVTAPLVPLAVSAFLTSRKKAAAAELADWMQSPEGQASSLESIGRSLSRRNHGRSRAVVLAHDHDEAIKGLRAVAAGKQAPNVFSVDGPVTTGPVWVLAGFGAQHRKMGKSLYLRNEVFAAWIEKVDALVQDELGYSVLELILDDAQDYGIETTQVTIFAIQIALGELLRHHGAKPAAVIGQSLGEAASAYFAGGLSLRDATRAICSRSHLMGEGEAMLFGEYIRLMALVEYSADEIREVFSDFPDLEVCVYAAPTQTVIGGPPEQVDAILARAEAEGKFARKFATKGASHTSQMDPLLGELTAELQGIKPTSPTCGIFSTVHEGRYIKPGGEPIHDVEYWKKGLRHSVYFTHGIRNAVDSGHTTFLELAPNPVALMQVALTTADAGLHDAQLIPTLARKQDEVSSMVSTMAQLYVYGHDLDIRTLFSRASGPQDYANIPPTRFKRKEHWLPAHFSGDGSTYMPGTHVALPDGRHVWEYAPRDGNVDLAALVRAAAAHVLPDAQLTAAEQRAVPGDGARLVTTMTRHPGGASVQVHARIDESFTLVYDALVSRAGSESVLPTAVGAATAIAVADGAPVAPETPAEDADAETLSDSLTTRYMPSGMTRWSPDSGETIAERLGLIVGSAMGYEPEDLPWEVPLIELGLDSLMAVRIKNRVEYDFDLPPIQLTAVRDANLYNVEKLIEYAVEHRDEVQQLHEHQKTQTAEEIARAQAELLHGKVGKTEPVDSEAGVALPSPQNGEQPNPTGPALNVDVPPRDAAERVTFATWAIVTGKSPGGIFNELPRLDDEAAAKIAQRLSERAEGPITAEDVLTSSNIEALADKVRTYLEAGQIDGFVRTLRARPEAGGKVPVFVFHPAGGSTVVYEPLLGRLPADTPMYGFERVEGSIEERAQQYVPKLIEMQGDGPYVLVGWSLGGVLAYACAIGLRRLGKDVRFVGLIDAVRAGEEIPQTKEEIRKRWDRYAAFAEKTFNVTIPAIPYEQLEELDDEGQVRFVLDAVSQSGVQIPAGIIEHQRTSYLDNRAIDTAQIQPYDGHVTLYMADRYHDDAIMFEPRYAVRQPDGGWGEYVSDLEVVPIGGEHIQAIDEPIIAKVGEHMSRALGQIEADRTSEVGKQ
UniProt P9WNZ1, whole entry: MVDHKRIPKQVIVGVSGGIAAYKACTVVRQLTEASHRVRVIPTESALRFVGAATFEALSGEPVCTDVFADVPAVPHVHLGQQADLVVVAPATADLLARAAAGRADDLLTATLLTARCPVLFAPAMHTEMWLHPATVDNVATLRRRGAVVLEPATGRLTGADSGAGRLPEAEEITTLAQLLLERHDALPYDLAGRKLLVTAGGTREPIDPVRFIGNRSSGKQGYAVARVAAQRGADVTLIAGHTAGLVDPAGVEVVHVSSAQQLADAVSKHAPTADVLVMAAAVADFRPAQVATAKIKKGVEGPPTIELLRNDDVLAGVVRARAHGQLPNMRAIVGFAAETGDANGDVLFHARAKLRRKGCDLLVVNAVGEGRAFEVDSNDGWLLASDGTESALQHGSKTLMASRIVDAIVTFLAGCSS
UniProt Q4DA54, 1-478: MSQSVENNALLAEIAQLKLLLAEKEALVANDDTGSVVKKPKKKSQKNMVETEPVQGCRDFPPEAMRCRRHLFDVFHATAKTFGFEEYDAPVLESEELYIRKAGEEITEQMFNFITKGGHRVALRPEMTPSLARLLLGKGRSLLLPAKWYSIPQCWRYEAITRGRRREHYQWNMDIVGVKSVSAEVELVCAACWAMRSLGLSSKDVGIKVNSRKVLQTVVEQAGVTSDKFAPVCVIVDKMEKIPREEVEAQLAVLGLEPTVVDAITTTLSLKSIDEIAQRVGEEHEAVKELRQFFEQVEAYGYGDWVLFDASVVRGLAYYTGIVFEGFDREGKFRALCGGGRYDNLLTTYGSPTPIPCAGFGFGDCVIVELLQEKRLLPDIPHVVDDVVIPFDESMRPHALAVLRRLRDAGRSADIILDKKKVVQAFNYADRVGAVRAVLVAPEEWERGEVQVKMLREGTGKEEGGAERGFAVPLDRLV
UniProt P9WFT3, whole entry: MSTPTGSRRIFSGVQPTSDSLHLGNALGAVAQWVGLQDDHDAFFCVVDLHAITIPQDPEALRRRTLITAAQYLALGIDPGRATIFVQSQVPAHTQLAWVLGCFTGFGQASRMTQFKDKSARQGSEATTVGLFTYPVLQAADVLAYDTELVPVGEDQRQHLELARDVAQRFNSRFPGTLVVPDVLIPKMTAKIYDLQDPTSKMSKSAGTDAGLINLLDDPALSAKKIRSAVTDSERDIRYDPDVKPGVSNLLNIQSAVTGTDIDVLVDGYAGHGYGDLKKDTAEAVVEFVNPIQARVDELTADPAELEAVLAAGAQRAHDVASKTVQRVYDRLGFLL
UniProt P9WPC5, whole entry: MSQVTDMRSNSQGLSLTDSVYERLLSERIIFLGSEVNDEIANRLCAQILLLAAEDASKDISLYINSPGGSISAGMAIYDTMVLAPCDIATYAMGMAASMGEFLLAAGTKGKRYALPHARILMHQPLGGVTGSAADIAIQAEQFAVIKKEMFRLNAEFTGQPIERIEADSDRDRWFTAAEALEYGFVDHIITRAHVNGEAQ
UniProt P9WPC3, whole entry partner: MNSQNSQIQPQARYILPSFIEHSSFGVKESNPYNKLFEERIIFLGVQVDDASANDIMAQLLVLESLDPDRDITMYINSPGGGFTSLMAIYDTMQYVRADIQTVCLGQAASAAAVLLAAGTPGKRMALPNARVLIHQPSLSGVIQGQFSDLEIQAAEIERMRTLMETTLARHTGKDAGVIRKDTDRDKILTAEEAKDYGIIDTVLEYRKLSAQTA

Data taken from ChEMBL document CHEMBL3988442, “University of Dundee, Small-Polar-MMV Screening Library” (2021).

Values are the deposited “Percent Effect”, in %. The record does not define 0% and 100%; most values in the screen are far below 50% and negative numbers occur (in some assays of this library far below -100). This is an unselected part of the compounds tested. Two or more numbers in one place are separate tests of the same structure; such repeats can differ widely. A dash means the value is not listed here; it may have been measured.

PfKRS1: 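Lysine-tRNA ligase, Plasmodium falciparum 3D7 (UniProt Q8IDJ8). Enzyme assay of the cytosolic lysyl-tRNA synthetase in 384-well plates, read by luminescence. Concentration: 30 µM. Higher reads as stronger inhibition, judged from the few compounds that gave an IC50. About 69,000 compounds were tested under these conditions; 0.071% (about 49) showed 50% or more at least once.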
Pks13 thioesterase: 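Polyketide synthase Pks13, Mycobacterium tuberculosis (UniProt I6X8D2). Enzyme assay of the thioesterase domain of polyketide synthase 13; the read-out is not stated. Concentration: 30 µM. Higher reads as stronger inhibition (inferred from which compounds were picked for retests). About 67,000 compounds were tested under these conditions; 0.46% (about 300) showed 50% or more at least once.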
CoaBC: 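Enzyme assay of CoaBC with a phosphate dye (Biomol Green) read at 650 nm. Target: Coenzyme A biosynthesis protein CoaBC, Mycobacterium tuberculosis (UniProt P9WNZ1). Concentration: 30 µM. Direction is inferred from only a few compounds that gave an IC50; most scored high, so higher reads as stronger inhibition. Most strong results did not repeat in a second test. Of about 67,000 compounds tested this way, about 40 (0.06%) reached 50% or more in at least one test.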
TcHisRS: 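Histidine-tRNA ligase, Trypanosoma cruzi CL Brener (UniProt Q4DA54). Enzyme assay of histidyl-tRNA synthetase; the read-out is not stated. Tested at 30 µM. Higher reads as stronger inhibition (inferred: compounds with an IC50 in retests scored well above the rest). Of about 69,000 compounds tested this way, about 31 (0.045%) reached 50% or more in at least one test.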
MtTrpRS: 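Tryptophan-tRNA ligase, Mycobacterium tuberculosis (UniProt P9WFT3). Enzyme assay of tryptophanyl-tRNA synthetase; the read-out is not stated. Tested at 10 µM. Higher most likely means stronger inhibition; the record gives no direction and few retests gave an IC50. About 65,000 compounds were tested under these conditions; 0.098% (about 64) showed 50% or more at least once.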
ClpP1P2: 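Protease assay of ClpP1P2, read by the AMC dye that it sets free. Target: ClpP1P2, Mycobacterium tuberculosis (UniProt P9WPC5 and UniProt P9WPC3). Compounds at 50 µM. Higher reads as stronger inhibition, judged from the few compounds that gave an IC50. Most other retested compounds had strongly negative values. Of about 69,000 compounds tested this way, about 10 (0.015%) reached 50% or more in at least one test.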

structure,PfKRS1,Pks13 thioesterase,CoaBC,TcHisRS,MtTrpRS,ClpP1P2
COC[C@]12COC[C@H]1CN(Cc1cccnc1OC)C2,2.764%,-30.99%,-9.287%,-0.5464%,1.809%,-1.062%
COc1cc(-c2nc(CN(CCO)CCO)c(C)o2)ccc1F,0.03524%,3.493%,-2.033%,6.438%,-4.393%,-20.94%
CCc1nnc(CN(C)C(=O)C(CC)n2c(CC)nc3ccccc32)o1 (centres unmarked),-0.1416%,2.566%,6.489%,5.288%,0.297%,-13.4%
COCC(=O)N1CCN(C(=O)CCc2ccsc2)CC1,1.042%,-24.17%,-1.613%,3.911%,-2.391%,-7.532%
Cc1cc(C(=O)N2C[C@H](c3ccccc3)[C@@H](N)C2)c2ccc(F)cc2n1,-1.405%,-6.138%,3.802%,11%,4.552%,1.488%
CN(C)[C@@H]1CCN(C(=O)c2ccsc2)[C@H]1Cc1cccnc1,0.1791%,-1.166%,2%,-1.961%,0%,6.899%
COc1ccc(N(C)C(=O)C2CN(C)CCO2)cc1Cl (centres unmarked),-4.606%,6.826%,3.6%,-3.448%,19.59%,-6.761%
CN(c1cccnn1)C1CCN(C(=O)c2n[nH]c3c2CCC3)CC1,5.08%,-32.37%,9.821%,7.182%,-1.548%,-1.989%
Cc1nn(C)c(C)c1C1CCCN1CCOc1cccc(C#N)c1 (centres unmarked),2.37%,0.09319%,4.37%,7.143%,-1.407%,7.929%
Cn1cc(CN2CCC3(CC2)CCN(Cc2ccccn2)CC3)cn1,3.388%,-18.73%,1.85%,2.632%,-1.952%,-6.452%
CC(C)c1nccn1-c1nccnc1C1CCCN1Cc1ccccc1 (centres unmarked),1.555%,6.094%,4.513%,18.46%,-3.465%,-41.32%
Cc1ccc(CN2C[C@@H]3CCN(Cc4ccncc4)C(=O)[C@H]3C2)s1,8.899%,-28.54%,9.794% and 26.64%,11.65%,-3.779%,54.04%
COc1ccccc1C1(CNc2nnc(C)c(C)c2C#N)CCCC1,2.241%,-,11.54%,13.79%,-2.028%,-2.857%
O=C(c1cnn[nH]1)N1CCCC1c1nc2cc(F)ccc2[nH]1 (centres unmarked),4.299%,-107.8%,1.276%,3.125%,2.419%,-13.68%
Fc1ccc(CN2CCCC2c2cncc(-n3ccnc3)n2)cc1 (centres unmarked),4.23%,-3.67%,1.702%,9.677%,-2.083%,3.362%
CC(C(=O)N1CCCC1)N1CCCN(C(=O)Oc2ccccc2)CC1 (centres unmarked),-0.9994%,-0.6237%,-2.316%,5%,0.1649%,-17.02%
Cn1cc(C2CCCN2C(=O)COCCOc2ccccc2)cn1 (centres unmarked),0.3559%,-8.088%,5.357%,3.509%,-8.796%,-6.265%
COc1cc(N2CCC3(CC2)C(c2ccncc2)CC(=O)N3C)ncn1 (centres unmarked),8.343%,-2.765%,4.926%,12.37%,-7.441%,3.745%
CN(C)C(=O)c1cccnc1SCc1ccccc1Cl,0.7338%,-7.33%,2.913%,2.273%,-,-9.569%
COc1nc2c(cc1C(=O)N(C)Cc1[nH]nc3c1CCC3)CCC2,4.775%,0.5958%,8.654%,7.595%,2.397%,-0.9109%
O=C1[C@H]2CN(c3ncccn3)C[C@H]2CN1CCN1CCCC1,0.5228%,-2.181%,4.225%,0.6135%,0.6427%,-0.07248%
Cc1ccc(C2(C(=O)N3CCC(n4cc(C(C)O)nn4)CC3)CC2)cc1 (centres unmarked),2.529%,-3.065%,-1.366%,2.899%,-3.039%,-14.82%
COc1cc(C)nc(N2CCN(C(=O)CN(C)C3CC3)CC2)n1,-2.673%,3.391%,4.145%,1.527%,-0.5197%,15.52%
CCc1nc2n(n1)CC(NCc1nc(-c3cccnc3)no1)CC2 (centres unmarked),13.54%,-10.94%,6.263%,-0.8403%,3.662%,-1.251%
O=C(Nc1ccccc1)c1cc2n(n1)CCCN(C(=O)N1CCCC1)C2,-2.659%,-0.1571%,-5.66%,1.031%,2.156%,20.22%
Cc1noc(C)c1CCC(=O)Nc1ccn(C)n1,3.9%,-0.01438%,2.67%,12.87%,-0.288%,26.77%
CC(=O)NCC(=O)N(CCc1ccccc1)C1CCOC1 (centres unmarked),4.843%,-30.9%,2.439%,0.9804%,-1.833%,-5.715%

For reference, 2 entries once more:

| structure | PfKRS1 | Pks13 thioesterase | CoaBC | TcHisRS | MtTrpRS | ClpP1P2 |
|---|---|---|---|---|---|---|
| `O=C1[C@H]2CN(c3ncccn3)C[C@H]2CN1CCN1CCCC1` | 0.5228% | -2.181% | 4.225% | 0.6135% | 0.6427% | -0.07248% |
| `COc1ccc(N(C)C(=O)C2CN(C)CCO2)cc1Cl` (centres unmarked) | -4.606% | 6.826% | 3.6% | -3.448% | 19.59% | -6.761% |